The values are deposited in ChEMBL (CHEMBL3988442, “University of Dundee, Small-Polar-MMV Screening Library” (2021)).

Sequences of proteins named here, by UniProt entry; tags and fusion partners are left off. Residues count along the entry.
UniProt Q8IDJ8, 1-583: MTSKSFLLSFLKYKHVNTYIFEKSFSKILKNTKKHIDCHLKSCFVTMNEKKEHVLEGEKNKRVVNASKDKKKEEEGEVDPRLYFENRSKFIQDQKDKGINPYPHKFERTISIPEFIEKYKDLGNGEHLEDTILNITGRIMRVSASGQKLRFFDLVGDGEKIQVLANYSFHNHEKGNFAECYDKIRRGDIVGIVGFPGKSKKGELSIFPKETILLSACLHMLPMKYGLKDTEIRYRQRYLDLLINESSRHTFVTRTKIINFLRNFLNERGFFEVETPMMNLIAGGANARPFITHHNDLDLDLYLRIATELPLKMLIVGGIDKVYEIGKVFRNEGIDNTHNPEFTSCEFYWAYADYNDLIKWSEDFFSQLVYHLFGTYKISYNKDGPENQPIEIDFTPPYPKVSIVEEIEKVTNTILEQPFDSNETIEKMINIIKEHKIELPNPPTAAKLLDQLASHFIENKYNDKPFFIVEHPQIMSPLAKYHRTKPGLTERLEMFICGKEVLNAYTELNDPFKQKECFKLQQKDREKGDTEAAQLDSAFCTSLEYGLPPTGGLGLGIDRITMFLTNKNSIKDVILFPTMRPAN
UniProt Q4DA54, 1-478: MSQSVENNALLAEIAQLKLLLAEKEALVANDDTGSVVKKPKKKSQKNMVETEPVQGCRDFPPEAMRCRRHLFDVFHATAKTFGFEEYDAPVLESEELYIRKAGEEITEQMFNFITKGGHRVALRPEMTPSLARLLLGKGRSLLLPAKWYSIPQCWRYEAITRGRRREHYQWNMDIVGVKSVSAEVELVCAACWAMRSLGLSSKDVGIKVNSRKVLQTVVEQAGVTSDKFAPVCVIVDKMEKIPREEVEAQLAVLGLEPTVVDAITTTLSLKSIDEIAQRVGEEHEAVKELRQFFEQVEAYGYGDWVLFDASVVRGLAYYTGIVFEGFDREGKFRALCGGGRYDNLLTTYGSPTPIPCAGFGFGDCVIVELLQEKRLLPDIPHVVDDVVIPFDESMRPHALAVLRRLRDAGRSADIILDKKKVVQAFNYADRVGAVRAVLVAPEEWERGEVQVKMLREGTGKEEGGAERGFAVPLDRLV
UniProt I6X8D2, whole entry: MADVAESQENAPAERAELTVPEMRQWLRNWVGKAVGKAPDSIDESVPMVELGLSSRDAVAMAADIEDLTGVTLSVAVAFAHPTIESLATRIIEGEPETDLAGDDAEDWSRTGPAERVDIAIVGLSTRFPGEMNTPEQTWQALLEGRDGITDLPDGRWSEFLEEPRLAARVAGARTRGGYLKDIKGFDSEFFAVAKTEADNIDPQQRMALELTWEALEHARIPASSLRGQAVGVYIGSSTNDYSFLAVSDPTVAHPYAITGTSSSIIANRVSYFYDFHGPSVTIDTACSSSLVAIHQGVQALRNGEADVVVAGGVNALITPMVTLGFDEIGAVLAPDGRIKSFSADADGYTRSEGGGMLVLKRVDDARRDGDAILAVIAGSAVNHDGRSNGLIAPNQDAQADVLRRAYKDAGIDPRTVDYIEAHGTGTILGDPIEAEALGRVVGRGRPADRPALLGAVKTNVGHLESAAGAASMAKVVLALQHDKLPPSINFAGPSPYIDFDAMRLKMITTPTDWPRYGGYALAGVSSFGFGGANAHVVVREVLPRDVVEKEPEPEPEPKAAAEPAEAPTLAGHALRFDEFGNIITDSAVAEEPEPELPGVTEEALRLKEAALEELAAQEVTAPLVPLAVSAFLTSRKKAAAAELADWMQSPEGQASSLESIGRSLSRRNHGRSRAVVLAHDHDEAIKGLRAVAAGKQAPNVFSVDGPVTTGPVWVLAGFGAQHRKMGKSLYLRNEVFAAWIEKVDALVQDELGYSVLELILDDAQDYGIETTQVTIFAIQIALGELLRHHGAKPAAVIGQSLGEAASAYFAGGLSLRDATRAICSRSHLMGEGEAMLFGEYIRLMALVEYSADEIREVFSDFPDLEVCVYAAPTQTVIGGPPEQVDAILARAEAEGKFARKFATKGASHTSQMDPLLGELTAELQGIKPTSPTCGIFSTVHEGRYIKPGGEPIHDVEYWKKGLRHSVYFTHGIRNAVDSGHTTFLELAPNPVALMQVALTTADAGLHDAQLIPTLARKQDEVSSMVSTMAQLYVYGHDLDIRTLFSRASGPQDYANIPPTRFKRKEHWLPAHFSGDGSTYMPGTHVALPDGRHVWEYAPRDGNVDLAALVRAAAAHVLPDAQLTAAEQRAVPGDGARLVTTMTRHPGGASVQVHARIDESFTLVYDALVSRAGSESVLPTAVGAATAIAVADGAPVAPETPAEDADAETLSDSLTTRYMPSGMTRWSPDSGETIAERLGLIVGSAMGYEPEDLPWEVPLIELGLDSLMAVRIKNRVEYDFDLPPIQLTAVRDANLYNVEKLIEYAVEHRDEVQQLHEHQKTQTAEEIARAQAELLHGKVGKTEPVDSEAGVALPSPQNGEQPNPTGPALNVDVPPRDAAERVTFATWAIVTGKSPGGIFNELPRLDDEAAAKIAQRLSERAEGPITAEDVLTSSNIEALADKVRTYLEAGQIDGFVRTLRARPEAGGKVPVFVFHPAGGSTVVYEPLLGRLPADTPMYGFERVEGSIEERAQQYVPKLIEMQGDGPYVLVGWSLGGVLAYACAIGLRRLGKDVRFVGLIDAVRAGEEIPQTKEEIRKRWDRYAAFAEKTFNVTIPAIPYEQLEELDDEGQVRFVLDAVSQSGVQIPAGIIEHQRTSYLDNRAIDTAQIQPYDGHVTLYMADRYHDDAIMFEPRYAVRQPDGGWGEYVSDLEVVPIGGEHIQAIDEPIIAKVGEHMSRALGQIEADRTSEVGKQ

PfKRS1: 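Enzyme assay of the cytosolic lysyl-tRNA synthetase in 384-well plates, read by luminescence. Target: Lysine-tRNA ligase, Plasmodium falciparum 3D7 (UniProt Q8IDJ8). Concentration: 30 µM. Higher reads as stronger inhibition, judged from the few compounds that gave an IC50. Size under these conditions: about 69,000 compounds, about 49 of them at 50% or above in at least one test.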
TcHisRS: 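Histidine-tRNA ligase, Trypanosoma cruzi CL Brener (UniProt Q4DA54). Enzyme assay of histidyl-tRNA synthetase; the read-out is not stated. Tested at 30 µM. Direction is inferred from retests: higher values go with stronger inhibition. Size under these conditions: about 69,000 compounds, about 31 of them at 50% or above in at least one test.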
Leishmania in macrophages: 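Cell assay of Leishmania donovani living inside macrophages; the read-out is not stated. Tested at 30 µM. The record gives no direction; compounds that gave an IC50 in retests scored well above the rest, so higher reads as stronger inhibition. Of about 69,000 compounds tested this way, about 1,000 (1.5%) reached 50% or more in at least one test.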
Pks13 thioesterase: 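Polyketide synthase Pks13, Mycobacterium tuberculosis (UniProt I6X8D2). Enzyme assay of the thioesterase domain of polyketide synthase 13; the read-out is not stated. Tested at 30 µM. Higher reads as stronger inhibition (inferred from which compounds were picked for retests). Of about 67,000 compounds tested this way, about 300 (0.46%) reached 50% or more in at least one test.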

Each number is a percent effect as filed. The controls that fix the scale are not given in the record; negative values are as filed. This is an unselected part of the compounds tested. Two or more numbers in one place are separate tests of the same structure; such repeats can differ widely.

SMILES: O=C(Nc1nncs1)NC1CCCc2c1cnn2CCO (configuration not stated)
PfKRS1: 4.758%
TcHisRS: 8.333%
Leishmania in macrophages: -3.371%
Pks13 thioesterase: 1.586%

SMILES: COc1c(F)cc(NC(=O)NCc2nncn2C2CC2)cc1F
PfKRS1: 2.465%
TcHisRS: 5.319%
Leishmania in macrophages: -14.63%
Pks13 thioesterase: -9.59%

SMILES: CCN(CC)CCC(=O)NCc1cc2n(n1)CCN(C(=O)N(C)C)C2
PfKRS1: 8.088%
TcHisRS: 1.98%
Leishmania in macrophages: -4.421%
Pks13 thioesterase: -35.34%

SMILES: O=C(O)C(F)(F)F.O=C(O)C(F)(F)F.O=C(O)C(F)(F)F.O=C(O)C(F)(F)F.[H][C@@]12CN(Cc3ccccn3)C[C@]1([H])OCCN2CCN(C)C
Leishmania in macrophages: 21.16% and 10.6%

SMILES: C1CCCN(CC2CCCN(Cc3noc(C4CC4)n3)C2)CC1 (configuration not stated)
PfKRS1: -0.2894%
TcHisRS: 28.78%
Leishmania in macrophages: 34.86%
Pks13 thioesterase: -4.772%

SMILES: COc1ccccc1N1CCN(Cc2ncc(C)c(OC)c2C)CC1=O
PfKRS1: 5.58%
TcHisRS: 16.8%
Leishmania in macrophages: 1.416%
Pks13 thioesterase: -1.159%

SMILES: Cc1nccn1-c1cc(CNC(=O)CCNC(=O)OC(C)(C)C)ccn1
PfKRS1: 4.855%
TcHisRS: 6.186%
Leishmania in macrophages: -16.67%
Pks13 thioesterase: 6.687%

SMILES: O=C(CNc1cc2c(cc1Br)OCCO2)NC1CCS(=O)(=O)C1 (configuration not stated)
PfKRS1: 6.362%
TcHisRS: 1.571%
Leishmania in macrophages: 0.2904%
Pks13 thioesterase: -30.04%

SMILES: CN(C)c1ncc(CN2CCC(O)(c3ccccc3F)CC2)cn1.O=C(O)CC(O)(CC(=O)O)C(=O)O
Leishmania in macrophages: 21.96%

SMILES: Cc1cccc2nc(CN3CCCC3Cn3cncn3)cn12 (configuration not stated)
PfKRS1: 2.918%
TcHisRS: 4.52%
Leishmania in macrophages: 9.426%
Pks13 thioesterase: 46.93%

SMILES: Cc1ccc(C(=O)NC(CN2CCCC2)c2ccccc2)c(=O)[nH]1 (configuration not stated)
PfKRS1: 2.508%
TcHisRS: 10.5%
Leishmania in macrophages: 28.86%
Pks13 thioesterase: -28.79%

SMILES: CN(Cc1noc2c1CCCC2)C(=O)CN1C(=O)COc2ccccc21
PfKRS1: -1.004%
TcHisRS: 1.149%
Leishmania in macrophages: 18.25%
Pks13 thioesterase: -25.03%

SMILES: Cc1nc(C2CCCN(C(=O)c3cccc4c3OCO4)C2)sc1C (configuration not stated)
PfKRS1: 4.581%
TcHisRS: 5.07%
Leishmania in macrophages: 46.68%
Pks13 thioesterase: -21.42%

SMILES: O=C(O)C(F)(F)F.O=C(O)C(F)(F)F.[H][C@]12CC(=O)N(Cc3cccc(C)n3)[C@@]1([H])CCN2Cc1ccc(F)cc1
Leishmania in macrophages: 21.91%

SMILES: CN(C)CCOCC1CN(Cc2ccccn2)Cc2nnn(C)c21 (configuration not stated)
PfKRS1: 0.02315%
TcHisRS: 8.411%
Pks13 thioesterase: -13.15%

SMILES: CS(=O)(=O)CCCN1CCOC2(CCc3ccccc32)C1 (configuration not stated)
PfKRS1: 0.4894%
TcHisRS: -1.093%
Leishmania in macrophages: 24.58%
Pks13 thioesterase: -3.759%

SMILES: CC(C)c1nc(C(=O)N2C[C@H]3CC[C@@H]2CN(C2CCOCC2)C3)cs1
PfKRS1: 6.251%
TcHisRS: 14.53%
Pks13 thioesterase: -5.228%

SMILES: [H][C@@]12C[C@H](C(=O)NC)[C@@]([H])(CN(C(=O)NCCc3ccccc3)C1)O2
Leishmania in macrophages: 28.34%

SMILES: COc1cc(C)cc(C(C(=O)O)N(C)CCN2CCCC2)c1OC (configuration not stated)
PfKRS1: 4.083%
TcHisRS: 7.097%
Leishmania in macrophages: 13.37%
Pks13 thioesterase: -7.383%

SMILES: COCCc1noc(C2CCN(S(=O)(=O)c3cccs3)CC2)n1
PfKRS1: -2.428%
TcHisRS: 5.556%
Leishmania in macrophages: 57.18%
Pks13 thioesterase: 13.18%

SMILES: COc1cccc2c1OCC(C(=O)N1CCC(N3CCSCC3)CC1)C2 (configuration not stated)
PfKRS1: -2.954%
TcHisRS: 0.5025%
Leishmania in macrophages: 17.09%
Pks13 thioesterase: 1.988%

SMILES: C[C@@H]1CN(C(=O)c2cnc(C3CC3)nc2)CC[C@@]1(O)C1CCOCC1
PfKRS1: -0.4163%
TcHisRS: 2.5%
Leishmania in macrophages: -1.382%
Pks13 thioesterase: -14.28%

SMILES: C[S+]([O-])CCNC(=O)N1CCSC2(CCCCC2)C1 (configuration not stated)
PfKRS1: 1.24%
TcHisRS: 1.064%
Leishmania in macrophages: 2.192%
Pks13 thioesterase: 8.582%

SMILES: Cc1n[nH]c(C)c1CCNC(=O)Nc1ccc(S(C)(=O)=O)cc1
PfKRS1: 6.055%
TcHisRS: 11.52%
Leishmania in macrophages: 26.01%
Pks13 thioesterase: -5.997%